Three molecules from article PMC7984842, “Genetic disruption of WASHC4 drives endo-lysosomal dysfunction and cognitive-movement impairments in mice and humans” (eLife, 2021) can be followed below.

The target of this experiment is T1, WASH1-BioID2-HA (UniProt Q8VDD8).
T1 sequence: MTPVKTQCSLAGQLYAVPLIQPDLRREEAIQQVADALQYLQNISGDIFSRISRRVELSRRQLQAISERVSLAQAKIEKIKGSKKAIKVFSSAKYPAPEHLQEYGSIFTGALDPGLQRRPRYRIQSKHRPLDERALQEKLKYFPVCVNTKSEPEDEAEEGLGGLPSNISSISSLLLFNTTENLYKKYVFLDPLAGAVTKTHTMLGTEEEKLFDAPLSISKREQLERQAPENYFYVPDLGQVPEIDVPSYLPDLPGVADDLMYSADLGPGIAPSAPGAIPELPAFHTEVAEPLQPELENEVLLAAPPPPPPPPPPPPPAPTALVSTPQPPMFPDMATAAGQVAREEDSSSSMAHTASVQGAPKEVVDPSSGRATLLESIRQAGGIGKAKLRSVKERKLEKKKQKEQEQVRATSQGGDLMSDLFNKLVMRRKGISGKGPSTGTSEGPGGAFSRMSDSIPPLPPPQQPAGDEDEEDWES
As to the kind of experiment: proximity labelling; in vivo BioID (iBioID): AAV hSyn1-WASH1-BioID2-HA in wild-type mouse brain, biotin 24 mg/kg for 7 days, biotinylated proteins purified on NeutrAvidin beads, label-free LC-MS/MS; enrichment over solubleBioID2 control (fold-change >=4, FDR<0.05).

These are yes or no findings as the source states them, for the method shown. In cells and extracts the contact can be indirect. A yes stands for co-enrichment or nearness to the bait. Other partners may have been found. Sequences can lack the tags named with a protein.

B1: DLGAP4 (protein, UniProt B1AZP2 1-992)
chain: MKGLGDSRPRHLSDSLDPPHEPLFAGPDRNPYLLSPTEAFAREARFPGQNTLPGDGLFPLNNQLPPPSSTFPRIHYNSHFEVPEESPFPSHAQATKINRLPANLLDQFEKQLPIHRDGFSTLQFPRGEAKARGESPGRIRHLVHSVQRLFFTKAPSMEGTAGKVGGNGSKKGGLEDGKGRRAKSKERAKAGEPKRRSRSNISGWWSSDDNLDGEGGAFRSGPASGLMTLGRQQERTQPRYFMHAYNTISGHMLKTTKNTTTELTAPPPPPAPPATCPSLGVGTDTNYVKRGSWSTLTLSHAHEVCQKTSATLDKSLLKSKSCHQGLAYHYLQVPGGGGEWSTTLLSPRDMDSTAEGPIPCRRMRSGSYIKAMGDEDSDESGGGSPKPSPKTAARRQSYLRATQQSLGEQSNPRRSLDRLDSVDMLLPSKCPSWEDDYNPISDSLNDSSCISQVFGQASLIPQLFGHDQQVREADLSDQYEAACESACSEAESTTAEALDLPLPSYFRSRSHSYLRAIQAGCSQEEDSVSLQSLSPPPSTGSLSNSRTLPSSSCLVAYKKTPPPVPPRTTSKPFISVTVQSSTESAQDTYLDSQDHKSEVTSQSGLSNSSDSLDSSTRPPSVTRGGITPGPEAPEPPPKHAALKSEQGTLTSSESHSEAIPKRKLSSIGIQVDCIQPVPKEEPSPATKFQSIGIQVEDDWRSSAPSHSMSSRRDTDSDTQDANDSSCKSSERSLPDCTSHPNSISIDAGPRQAPKIAQIKRNLSYGDNSDPALEASSLPPPDPWLETSSSSPAEPAQPGACRRDGYWFLKLLQAETERLEGWCCQMDKETKENNLSEEVLGKVLSAVGSAQLLMSQKFQQFRGLCEQNLNPDANPRPTAQDLAGFWDLLQLSIEDISMKFDELYHLKANSWQLVETPEKRKEEKKPPPPVPKKPAKSKAAVSRDKASDAGDKQRQEARKRLLAAKRAASVRQNSATESADSIEIYVPEAQTRL
B1: the binding result was “binds”.

B2: WASHC4 (SWIP), mouse (protein, UniProt Q3UMB9 1-1173)
chain: MAVDTLSPDWDFDRVDDGSQKIHAEVQLKNYGRFLEEYTSQLRRIEDALDDLIGDVWDFNLDPIALKLLPYEQSSLLELIKTENKVLNKVITVYAALCCEIKKLKYEAETKFYNGLLFYGEGATDSSMVEGDCQIQMGRFVSFLQELSCFVTRCYEVVMNVIHQLAALYISNKIGPKIIETTGVHFQTMYEHLGELLTVLLTLDEIVDNHVTLKDHWTMYKRLLKSVHHNPSKFGIQEEKLKPFEKFLLKLEGQLLDGMIFQACIEQQFDSLNGGISVSKNSTFAEEFAHSIRSIFANVEAKLGEPSEIDQRDKYVGICGLFVLHFQIFRTVDKKFYKSLLDICKKVPAITLTANIIWFPDNFLIHKMPAAAKLLDRKSLQAIKIHRDTFLQQKAQSLNKDVQSYYVFVSSWMMKMESMLSKEQRMDTFAEDLTNRCNVFIQGFLYAYSISTIIKTTMNLYMSMQKPMTKTSVKALCRLIELLKAIEHMFYRRSMVVADSVSHITQHLQHQALSSISVAKKRVISDKKYSEQRLDVLSALVLAENTLNGPSTKQRRLIVSLALSVGTQMKTFKDEELFPLQVVMKKLDLISELRERVQAQCDCCFLYWHRAVFPIYLDDVYENAVDAARLHYMFSALRDCVPAMMHSRHLESHELLLDCYDKEIMDILNEHLLDKLCKEIEKDLRLSVHTHLKLDDRNPFKVGRKDLALFFSLNPIRFFNRFIDIRAYVTHYLDKTFYNLTTVALHDWATYSEMRNLATQRYGLVMTEAHLPSQTLEQGLDVLEIMRNIHIFVSRYLYNLNNQIFIERTSNNKHLNTINIRHIANSIRTHGTGIMNTTVNFTYQFLKKKFYIFSQFMYDEHIKSRLIKDIRFFREIKDQNDHKYPFDRAEKFNRGIRKLGITPEGQSYLDQFRQLISQIGNAMGYIRMIRSGGLHCSSNAIRFVPDLEDIVSFEELVKEEGLAEETLRAARHLDSVLSDHTRNSAEGTEYFKMLVDVFAPEFRRPKNIHLRNFYIIVPPLTLNFVEHSISCKEKLNKKNKLGAAFTDDGFAMGVAYTLKLLDQYQEFDSLHWFQSVREKYIKEIRAVAKQQNVQSTSQDEKLLQTMNLTQKRLEVYLQEFELLYFSLSSARIFFRADKTAAEENQEKKEKEEETKTSNGDGPESTVSADPVVK
Take B2: the binding result was “binds”.

B3: SNX2 (protein, UniProt Q9CWK8 1-519)
chain: MAAEREPPPLGDVKPTDFEELEDGEDLFTSTVSTLESSPSSPEPASLPAEDISANSNGSKPVEVVLDDDREDLFAEATEEVSLDSPERELILSSEPSPAVTPVTPTTLIAPRIESKSISAPVIFDRSRDEIEEEANGDIFDIEIGVSDPEKVGDGMNAYMAYRVTTKTSLSMFSKSEFSVKRRFSDFLGLHSKLASKYLHVGYIVPPAPEKSIVGMTKVKVGKEDSSSTEFVEKRRAALERYLQRTVKHPTLLQDPDLRQFLESSELPRAVNTQALSGAGILRMVNKAADAVNKMTIKMNESDAWFEEKQQQFENLDQQLRKLHASVEALVCHRKELSANTAAFAKSAAMLGNSEDHTALSRALSQLAEVEEKIDQLHQEQAFADFYMFSELLSDYIRLIAAVKGVFDHRMKCWQKWEDAQITLLKKRETEAKMMVANKPDKIQQAKNEIREWEAKVQQGERDFEQISKTIRKEVGRFEKERVKDFKAVIIKYLESLVQTQQQLIKYWEAFLPEAKAIA
On to B3, for which the binding entry is “binds”.
